{"source": "PubChem BioAssay AID2685", "about": "(National Center for Advancing Translational Sciences (NCATS), 2010)", "test": "qHTS Assay for Lipid Storage Modulators in Drosophila S3 Cells;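 on cell number change: cells counted by Cell Tracker Red CMTPX staining in the red channel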", "conditions": "BODIPY lipid droplet fluorescence, 18-24 h; for cell number change: measured here: cell count max response, cells fed with added oleic acid", "summary_of_the_method": "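Drosophila S3 cells loaded with oleic acid (400 uM, as added) and compounds at several concentrations; lipid droplets imaged by 488-nm laser-scanning cytometry, 500–530 nm intensity and object ratio to cell channel. Percent activity normalized to 20 uM Triacsin C.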", "key": {"[1]": {"conditions": "measured here: lipid fluorescence (Fed channel) AC50, cells fed with added oleic acid"}, "[2]": {"conditions": "measured here: cell number channel AC50, cells fed with added oleic acid"}}, "note": "This is one part of the list. The main result of the screen is listed elsewhere. These columns were measured beside it and carry no call. The list favours compounds with an active or inconclusive main result. The note in brackets gives the kind of curve behind each potency; many fits are weak."}
{"compound": "CC(=O)c1ccc(Cc2ccccc2)cc1", "values": [{"measurement": "AC50", "setting": "[1]", "value": "6.51 µM [falling, single point]"}]}
{"compound": "CSc1ccc(CN(C)C(=O)C(c2ccccc2)c2ccccc2)cc1", "values": [{"measurement": "cell number change", "value": 4.17, "unit": "%"}]}
{"compound": "CCCCn1c2c(c(=O)n(C)c1=O)C(CC(=O)OCC(=O)Nc1cccc(C(F)(F)F)c1)C(=O)N2", "note": "(stereo not given)", "values": [{"measurement": "cell number change", "value": -5.58, "unit": "%"}, {"measurement": "AC50", "setting": "[1]", "value": "6.51 µM [falling, partial curve]"}]}
{"compound": "Cc1ccsc1CN(C)CC(=O)Nc1cccc(S(=O)(=O)N(C)c2ccccc2)c1", "values": [{"measurement": "cell number change", "value": 123, "unit": "%"}, {"measurement": "AC50", "setting": "[2]", "value": "6.51 µM [rising, partial curve]"}]}
{"compound": "CCOc1ccc(/C=N/NC(=O)c2[nH]ncc2Br)c(O)c1", "values": [{"measurement": "cell number change", "value": -33.1, "unit": "%"}, {"measurement": "AC50", "setting": "[2]", "value": "18.4 µM [falling, single point]"}, {"measurement": "AC50", "setting": "[1]", "value": "20.6 µM [falling, partial curve]"}]}
{"compound": "COc1ccccc1CNc1nc2nc(C)cc(=O)n2[nH]1", "values": [{"measurement": "cell number change", "value": -12.3, "unit": "%"}]}
{"compound": "Cc1ccc(CNC(=O)COc2ccc(S(=O)(=O)NC(C)C)cc2)cc1", "values": [{"measurement": "cell number change", "value": 98, "unit": "%"}, {"measurement": "AC50", "setting": "[2]", "value": "14.6 µM [rising, partial curve]"}, {"measurement": "AC50", "setting": "[1]", "value": "2.91 µM [rising, partial curve]"}]}
{"compound": "c1ccc(-n2ncc3c(N4CCCCC4)ncnc32)cc1", "values": [{"measurement": "AC50", "setting": "[2]", "value": "0.291 µM [rising, partial curve]"}, {"measurement": "AC50", "setting": "[1]", "value": "16.4 µM [rising, partial curve]"}]}
{"compound": "Cc1cc(C)cc(CSCC(=O)N/N=C/c2ccc(OCC(=O)NCc3ccco3)cc2)c1", "values": [{"measurement": "cell number change", "value": -7.18, "unit": "%"}]}
{"compound": "CCc1ccc2c(COC(=O)c3n[nH]c4ccccc34)cc(=O)oc2c1", "values": [{"measurement": "cell number change", "value": -19.6, "unit": "%"}]}
{"compound": "CCc1ccc2nc(SCC(=O)Nc3ccccc3N3CCOCC3)c(C#N)cc2c1", "values": [{"measurement": "cell number change", "value": -15.6, "unit": "%"}, {"measurement": "AC50", "setting": "[1]", "value": "3.26 µM [falling, full curve, poor fit]"}]}
{"compound": "CCc1ccccc1S(=O)(=O)Cc1ccc(C(=O)NC2CCCC2)o1", "values": [{"measurement": "cell number change", "value": -18.6, "unit": "%"}]}
{"compound": "Cc1cc(Cl)ccc1OCC(=O)n1cc(C(=O)c2cc(Cl)ccc2O)cn1", "values": [{"measurement": "cell number change", "value": -17.8, "unit": "%"}, {"measurement": "AC50", "setting": "[1]", "value": "0.116 µM [falling, partial curve, poor fit]"}]}
{"compound": "O=C(CCCn1c(=S)[nH]c2cc3c(cc2c1=O)OCO3)N1CCN(c2ccccc2)CC1", "values": [{"measurement": "cell number change", "value": -11.7, "unit": "%"}, {"measurement": "AC50", "setting": "[2]", "value": "0.082 µM [rising, full curve, poor fit]"}]}
{"compound": "COc1cccc(-c2nn(C)c3sc(C(=O)Nc4ccc5c(c4)OCCO5)cc23)c1", "values": [{"measurement": "cell number change", "value": -30.4, "unit": "%"}, {"measurement": "AC50", "setting": "[2]", "value": "29.1 µM [falling, single point]"}]}
{"compound": "O=C(CN(C(=O)CNC(=O)c1cccs1)c1cccc(F)c1)NC1CCCC1", "values": [{"measurement": "cell number change", "value": 16.7, "unit": "%"}, {"measurement": "AC50", "setting": "[2]", "value": "0.116 µM [rising, full curve, poor fit]"}]}
{"compound": "O=C(CN1C(=O)C2CCCCC2C1=O)Nc1cc(C(F)(F)F)ccc1N1CCCC1", "note": "(stereo not given)", "values": [{"measurement": "cell number change", "value": 29.4, "unit": "%"}, {"measurement": "AC50", "setting": "[1]", "value": "23.1 µM [rising, single point]"}]}
